The list shows a part of the results. Single values are uncertain here, since repeats match poorly.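 ATM8/balancer (normal ATM) heterozygous flies were crossed on treated food; parents laid eggs 5–6 days, offspring developed ~12 days, so parents and larvae ingested compound. Readout: fraction of emerged adults homozygous for ATM8 versus 2% DMSO controls. Compounds were neutral at 10–20% homozygotes, harmful below 10%, helpful above 20%.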
test system: Drosophila melanogaster ATM8 (temperature-sensitive ATM allele); assay: fraction of eclosed F1 progeny that are homozygous ATM8 (rescue of developmental lethality); higher = more rescue of ATM8 developmental lethality; extreme values may be limits of the assay; conditions: compound concentration applied to food 0.2 mM; 21 °C

Row | SMILES | fraction of eclosed F1 progeny that are homozygous ATM8
1 | CC[N+](C)(CC)CCOC(=O)C(O)(c1ccccc1)C1CCCCC1 (stereo unspecified) | 0.125
2 | O=C1c2c(O)cccc2Cc2cccc(O)c21 | 0.025
3 | O=S(=O)(O)c1cc(N=C=S)ccc1/C=C/c1ccc(N=C=S)cc1S(=O)(=O)O | 0.3
4 | CCCCCCCCCCCCCCCC(=O)OCC(O)CO (stereo unspecified) | 0.135
5 | Cc1[nH]ccc2c1[nH]c1cc(=O)ccc12 | 0.175
6 | CC(=O)Oc1ccccc1C(=O)Nc1ncc([N+](=O)[O-])s1 | 0.104
7 | CC1(C)OC(=O)C(OCC2CC2)=C1c1ccc(S(C)(=O)=O)cc1 | 0.293
8 | CCCCC(O)c1ccccc1 (stereo unspecified) | 0.203
9 | O=c1cc(-c2ccccc2)oc2c(O)c(O)ccc12 | 0.143
10 | CCCCOCCOCCOCc1cc2c(cc1CCC)OCO2 | 0.211
11 | CCN(CC)CCOC(=O)C1(C2CCCCC2)CCCCC1 | 0.0263
12 | COc1ccc([C@@H]2CC(=O)c3c(O)cc(O)cc3O2)cc1O | 0.109
13 | CC(=O)ON(CCN(OC(C)=O)OC(C)=O)OC(C)=O | 0.093
14 | C[N+]1(C)CCC(OC(=O)C(O)(c2ccccc2)C2CCCC2)C1 (stereo unspecified) | 0.04
15 | CCCCCCCCCCCCCCCCCCOCC(O)CO (stereo unspecified) | 0
16 | COC1=C[C@@H](C)[C@@H]2C[C@H]3OC(=O)C[C@H]4C(C)=C(OC)C(=O)[C@H]([C@@]2(C)C1=O)[C@@]34C | 0.34
17 | N#Cc1ccc(C(c2ccc(C#N)cc2)n2cncn2)cc1 | 0.0196
18 | Clc1ccc(CCC(Cn2ccnc2)Sc2c(Cl)cccc2Cl)cc1 (stereo unspecified) | 0.444
19 | CCCCCc1c2c(cc(O)c1C(=O)O)OC(=O)c1c(cc(OC)cc1C(=O)CCCC)O2 | 0.345
20 | CC(C)CC(N)=O | 0.224
21 | N=C(NCCCCCCNC(=N)NC(=N)Nc1ccc(Cl)cc1)NC(=N)Nc1ccc(Cl)cc1 | 0
22 | NCc1ccccc1CC(=O)N[C@@H]1C(=O)N2C(C(=O)O)=C(CSc3nnnn3CC(=O)O)CS[C@H]12 | 0.171
23 | COc1c2occc2cc2ccc(=O)oc12 | 0.111
24 | Oc1ccc2ccccc2c1 [beta-NAPHTHOL] | 0.0816
25 | COC(=O)c1cc(O)c(=O)c2c(O)c(O)ccc2c1 | 0.0256
26 | O=Cc1ccc(O)c(O)c1O | 0.069

Row | SMILES | fraction of eclosed F1 progeny that are homozygous ATM8
27 | CC(=O)Oc1ccc2c(c1OC(C)=O)OCC1(O)Cc3c(cc(OC(C)=O)c(OC(C)=O)c3OC(C)=O)C21 (stereo unspecified) | 0.195
28 | O=C(O)Cc1ccc(-c2ccccc2)cc1 | 0.296
29 | O=C(NC[C@H]1CN(c2ccc(N3CCOCC3=O)cc2)C(=O)O1)c1ccc(Cl)s1 | 0.149
30 | C[C@@H]1C[C@H]2[C@@H]3C[C@H](F)C4=CC(=O)C=C[C@]4(C)[C@@]3(F)[C@@H](O)C[C@]2(C)[C@@]1(O)C(=O)CO | 0.163
31 | CC[C@H](/C=C/[C@@H](C)[C@H]1CC[C@H]2[C@@H]3CC=C4C[C@@H](O)CC[C@]4(C)[C@H]3CC[C@]12C)C(C)C | 0.312
32 | O=C(O)c1cn(-c2ccc(F)cc2)c2cc(N3CCNCC3)c(F)cc2c1=O | 0.212
33 | C[C@@H](CO)NC(=O)[C@@H]1C=C2c3cccc4[nH]cc(c34)C[C@H]2N(C)C1 | 0
34 | Clc1ccc(C(OCCN2CCCCC2)c2ccccc2)cc1 (stereo unspecified) | 0.255
35 | COC(=O)[C@H](c1ccccc1Cl)N1CCc2sccc2C1 | 0.25
36 | COCCCC/C(=N\OCCN)c1ccc(C(F)(F)F)cc1 | 0
37 | COc1cc(OC)c2c(=O)c(OC)c(-c3ccccc3)oc2c1 | 0.0952
38 | C[C@H](N[C@@H](CCc1ccccc1)C(=O)O)C(=O)N1CCC[C@H]1C(=O)O | 0.0317
39 | CN(C)[C@@H]1C(O)=C(C(N)=O)C(=O)[C@@]2(O)C(O)=C3C(=O)c4c(O)cccc4[C@@](C)(O)[C@H]3C[C@@H]12 | 0.121
40 | Oc1c(Br)cc(Br)c2cccnc12 | 0.119
41 | C[C@]12CC[C@H](O)C[C@H]1CC[C@@H]1[C@@H]2C[C@@H](O)[C@]2(C)[C@@H](C3=CC(=O)OC3)CC[C@]12O | 0.176
42 | COc1ccc(-c2coc3cc(O)ccc3c2=O)cc1 | 0.093
43 | NCCc1c[nH]c2ccccc12 | 0.25
44 | NC(=O)c1ccccc1O | 0.2
45 | COc1ccc(C(=O)CCC(=O)O)c2ccccc12 | 0.22
46 | Nc1nc(F)nc2c1ncn2[C@@H]1O[C@H](COP(=O)(O)O)[C@@H](O)[C@@H]1O | 0.113
47 | CCOC(=O)N1CCC(=C2c3ccc(Cl)cc3CCc3cccnc32)CC1 | 0.224
48 | COc1cc2c(cc1OC)C1C(=O)c3c(O)cc4c(c3OC1CO2)C=CC(C)(C)O4 (stereo not drawn) [alpha-TOXICAROL (dl)] | 0.143
49 | CC[C@H]1OC(=O)[C@H](C)[C@@H](O[C@H]2C[C@@](C)(OC)[C@@H](O)[C@H](C)O2)[C@H](C)[C@@H](O[C@@H]2O[C@H](C)C[C@H](N(C)C)[C@H]2O)[C@](C)(O)C[C@@H](C)C(=O)[C@H](C)[C@@H](O)[C@]1(C)O | 0.0323
50 | CC(C(=O)O)c1ccc(CC2CCCC2=O)cc1 (stereo unspecified) | 0.175
51 | CC1=C(/C=C/C(C)=C/C=C/C(C)=C/C=C/C=C(C)/C=C/C=C(C)/C=C/C2=C(C)CCCC2(C)C)C(C)(C)CCC1 [beta-CAROTENE [2mM]] | 0.316
52 | CC(=O)OCC(=O)[C@H]1CC[C@H]2[C@@H]3CC=C4C[C@@H](O)CC[C@]4(C)[C@H]3CC[C@]12C | 0.255

Row | SMILES | fraction of eclosed F1 progeny that are homozygous ATM8
53 | NC(=O)C[S+]([O-])C(c1ccccc1)c1ccccc1 (stereo unspecified) | 0.324
54 | CC1=CC(=O)[C@H]2C(C)(C)CCC[C@]2(C)[C@@]1(O)CCc1ccoc1 | 0.0847
55 | NCCCCC(=O)O | 0.0909
56 | c1ccc(CC2=NCCN2)cc1 | 0.217
57 | OCCN1CCN(CCCN2c3ccccc3Sc3ccc(C(F)(F)F)cc32)CC1 | 0
58 | CC(C)(Oc1ccc(CCNC(=O)c2ccc(Cl)cc2)cc1)C(=O)O | 0.25
59 | O=C(O)CCc1nc(-c2ccccc2)c(-c2ccccc2)o1 | 0.176
60 | CC1(C)C=Cc2c(c3c(c4c(=O)c(-c5ccc(O)cc5)coc24)OC(C)(C)CC3)O1 | 0.115
61 | CC(C)[C@@H](C)/C=C/[C@@H](C)[C@H]1CC[C@H]2C3=CC=C4C[C@@H](O)CC[C@]4(C)[C@H]3CC[C@]12C | 0.0244
62 | O=C1c2ccccc2C(=O)C1c1ccccc1 | 0.188
63 | Clc1ccc2c(c1)C(N1CCNCC1)=Nc1ccccc1O2 | 0
64 | Cc1ccc(N(CC2=NCCN2)c2cccc(O)c2)cc1 | 0.105
65 | COc1cc2occ(-c3ccc(OC)c(OC)c3OC)c(=O)c2cc1OC | 0.0299
66 | CCc1ccc(CCOc2ccc(CC3SC(=O)NC3=O)cc2)nc1 (stereo unspecified) | 0.129
67 | O=C(O)c1ccccc1-c1c2cc(I)c(=O)c(I)c-2oc2c(I)c(O)c(I)cc12 | 0.0484
68 | COc1cc(C)c(C(=O)O)c(O)c1 | 0.233
69 | CC(=O)C1=C(O)C=C2Oc3c(C(C)=O)c(O)c(C)c(O)c3C2(C)C1=O (stereo in doubt) | 0.312
70 | CO[C@H]1/C=C/O[C@@]2(C)Oc3c(C)c(O)c4c(O)c(c(/C=N/N5CCN(C)CC5)c(O)c4c3C2=O)NC(=O)/C(C)=C\C=C\[C@H](C)[C@H](O)[C@@H](C)[C@@H](O)[C@@H](C)[C@H](OC(C)=O)[C@@H]1C | 0.0333
71 | C[C@@H]1CC[C@H]2C(C)(C)[C@H]3C[C@@]12CC[C@@]3(C)O | 0
72 | Cc1c(Cl)cccc1Nc1ccccc1C(=O)O | 0.14
73 | CCCSc1ccc2[nH]c(NC(=O)OC)nc2c1 | 0.0263
74 | CC[C@@H](C(=O)O)[C@@H]1O[C@@H]([C@@H](C)[C@H](O)[C@H](C)C(=O)[C@H](CC)[C@H]2O[C@]3(C=C[C@@H](O)[C@]4(CC[C@@](C)([C@H]5CC[C@](O)(CC)[C@H](C)O5)O4)O3)[C@H](C)C[C@@H]2C)[C@@H](C)C[C@@H]1C | 0.0926
75 | CCCc1ncc(C[n+]2ccccc2C)c(N)n1 | 0.0909
76 | C=CC(C)(O)CCC=C(C)CCC=C(C)C (mixture of isomers) | 0.171
77 | CC(C(=O)O)c1cccc(Oc2ccccc2)c1 (stereo unspecified) | 0.157
78 | COc1ccccc1-c1coc2cc(O)ccc2c1=O | 0.08

Row | SMILES | fraction of eclosed F1 progeny that are homozygous ATM8
79 | Oc1ccc(C2CNCCc3c2cc(O)c(O)c3Cl)cc1 (stereo unspecified) | 0
80 | CC(=O)N[C@@H](Cc1c[nH]c2ccccc12)C(=O)O | 0.295
81 | COC(=O)C[C@H]1C(C)(C)[C@@H](O)[C@@H]2CC3=C4C=C(OC)O[C@@H](c5ccoc5)[C@]4(C)CCC3[C@@]1(C)C2=O (stereo partly drawn) [3-DEOXO-3beta-HYDROXYMEXICANOLIDE 16-ENOL ETHER] | 0.0952
82 | COc1ccc2c(C)cc(=O)oc2c1 | 0.0476
83 | COc1cc(OC)c2c(=O)cc(-c3ccccc3)oc2c1 | 0.263
84 | COc1cc(C(=S)N2CCOCC2)ccc1O | 0.069
85 | COc1c2c(cc3c1OCO3)CC[N+](C)=C2 | 0.0571
86 | O=C1OC(c2ccc(O)cc2)(c2ccc(O)cc2)c2ccccc21 | 0.231
87 | C=CCc1ccc(O)c(OC)c1 | 0.184
88 | CC(=O)OCC(=O)NCCCOc1cccc(CN2CCCCC2)c1 | 0.0746
89 | CCn1cc(C(=O)O)c(=O)c2cc(F)c(N3CCNCC3)nc21 | 0.0465
90 | CC(CCC(=O)O)[C@H]1CCC2C3C[C@H](O)[C@@H]4C[C@H](O)CC[C@]4(C)C3CC[C@@]21C (stereo partly drawn) [alpha-HYDROXYDEOXYCHOLIC ACID] | 0.156
91 | COc1cc(O)c(C(=O)/C=C/c2ccc(OC)c(O)c2)c(OC)c1 | 0.179
92 | Oc1ccc2c(c1)OC[C@]1(O)Cc3cc(O)c(O)cc3[C@H]21 | 0.196
93 | C[C@]12CCC(=O)C=C1CCc1ccc(O)cc12 | 0.184
94 | CCCCCN(C)CCC(O)(P(=O)(O)O)P(=O)(O)O | 0.14
95 | Cc1cccc(C)c1NC1=NCCCS1 | 0.111
96 | C1N2CN3CN1CN(C2)C3 | 0.093
97 | C[Se]CC[C@H](N)C(=O)O | 0.0952
98 | Cc1ncc([N+](=O)[O-])n1C | 0.208
99 | c1ccc2c(c1)CCCC2C1=NCCN1 (stereo unspecified) | 0.0278
100 | C[C@@H](O)[C@H]1C(=O)N2C(C(=O)O)=C(SCCNC=N)C[C@H]12 | 0.258
101 | O=c1cc(-c2ccc(O)cc2)oc2cc(O[C@@H]3O[C@H](CO)[C@@H](O)[C@H](O)[C@H]3O[C@@H]3OC[C@](O)(CO)[C@H]3O)cc(O)c12 | 0.171

Looked up above.
fraction of eclosed F1 progeny that are homozygous ATM8, NC(=O)C[S+]([O-])C(c1ccccc1)c1ccccc1 (stereo unspecified) is entered as 0.324
fraction of eclosed F1 progeny that are homozygous ATM8, C[N+]1(C)CCC(OC(=O)C(O)(c2ccccc2)C2CCCC2)C1 (stereo unspecified) is entered as 0.04
fraction of eclosed F1 progeny that are homozygous ATM8, Oc1ccc(C2CNCCc3c2cc(O)c(O)c3Cl)cc1 (stereo unspecified) is entered as 0
fraction of eclosed F1 progeny that are homozygous ATM8, CCCCCN(C)CCC(O)(P(=O)(O)O)P(=O)(O)O is entered as 0.14
fraction of eclosed F1 progeny that are homozygous ATM8, COc1c2c(cc3c1OCO3)CC[N+](C)=C2 is entered as 0.0571

Source: the supplement of paper PMC5770031
